# From patent US20080221134A1, “8-ALKYNYLXANTHINES AND DERIVATIVES” (priority 2006, published 2008)
# Columns and labels:
# [1] = system: CGS-21680 induced catalepsy; experiment: Acute CGS-21680 induced catalepsy test; format: in vivo, rat; conditions: CGS-21680 i.p. 2 mg/kg compared to vehicle
# Method: (§1) Animals were administered with Reserpine or CGS-21680 according to methods known to the skilled person in the art. These models and procedures are e.g. described by Ferré S. et al., Neurosci. Let., 1991, 130, 162; Ferré S. et al., Neuroscience, 1992, 51, 501; Kafka S. H. et al., Eur. J. Pharmacol., 1996, 295, 147; Rimondini R. et al., Neuropsychopharmacology, 1997, 17, 82 and are herein incorporated by reference. In the acute CGS-21680 induced catalepsy model (CGS model) the test compounds (TC, compounds according to the present invention) and CGS-21680 (i.p. 2 mg/kg) were administered 60 minutes before the start of the catalepsy bar measurement and behavioural testing described below (see also FIG. 1). In the acute Reserpine induced catalepsy model (RES model Resperine (subcutaneously, 3 mg/kg) was injected 24 h prior to the test compound application. Catalepsy bar measurement took place 60 minutes after test compound application (see FIG. 1). Test compounds were administered i.p. in DMSO in following doses (mg/kg): 0.1, 0.3, 1, 3, 10.
# Dimethylsulfoxide (DMSO) was used as vehicle for the test compounds and Reserpine. Reserpine was dissolved in DMSO in a concentration of 3 mg/ml. A 10% (w/v) Cyclodextrin solution was used as vehicle for CGS-21680. CGS 21680 was dissolved in 10% (w/v) Cyclodextrine in a concentration of 2 mg/ml.
# Caffeine was used as a reference compound in the CGS-21680 induced catalepsy model. A caffeine solution was prepared with water for injection purposes to a concentration of 30 mg/ml. The solution was administered intraperitoneally in a volume of 1 ml/kg (30 mg/kg) 30 minutes before the beginning of testing and after CGS-21680 pre-treatment (1 hour prior to testing).
# The catalepsy bar after CGS-21680 administration was measured (CAT) as follows: The rat was placed with its forepaws on a log of wood. […] If the animal descended faster than 1 second, the trial was regarded as invalid. […] The following parameters were calculated: maximum time to descend (s) and median time to descend (s). […]
# The rat is taken in the hand of the observer and the animal's body tone is rated as normal, soft or hard. […] The following parameters were calculated: mean occurrence of hard body tone and mean occurrence of soft body tone.
# The rat is horizontally placed to an inclined plane for a maximum time of 30 seconds. Time to reach bottom or top is measured. […] Time to leave the inclined plane(s) was measured.
# The rat is put on a grip and the observer pulls the animal back on his tail. The strength (fore paws and hind paws) by which it holds on the grid is scored as grasping and pulling, grasping without pulling or no grasping. […] The following parameters were calculated: mean score of fore paw grip strength and mean score of hind paw grip strength. […]
# [2] = system: Reserpine induced catalepsy; experiment: Acute Reserpine induced catalepsy test; format: in vivo, rat; conditions: Reserpine s.c. 3 mg/kg compared to vehicle
# Method: as §1
# Dimethylsulfoxide (DMSO) was used as vehicle for the test compounds and Reserpine. […]
# The catalepsy bar after Reserpine administration was measured (CAT) as follows: The rat was placed with its forepaws on a log of wood. […] The following parameters were calculated: maximum time to descend (s) and median time to descend (s). […]
Structure (SMILES),"grip strength, inducer compared to vehicle [1]","rating of hard body tone, inducer compared to vehicle [1]","rating of soft body tone, inducer compared to vehicle [1]","time leaving inclined plane, inducer compared to vehicle [1]","maximum catalepsy values, inducer compared to vehicle [2]","median catalepsy values, inducer compared to vehicle [2]"
"CCNC(=O)[C@H]1O[C@@H](n2cnc3c(N)nc(NCCc4ccc(CCC(=O)O)cc4)nc32)[C@H](O)[C@@H]1O [CGS-21680, reference compound]",unaffected,decreased,significantly increased,unaffected,–,–
"COC(=O)[C@H]1[C@H]2C[C@@H]3c4[nH]c5cc(OC)ccc5c4CCN3C[C@H]2C[C@@H](OC(=O)c2cc(OC)c(OC)c(OC)c2)[C@@H]1OC [Reserpine, reserpine, reference compound]",–,–,–,–,significantly increased,significantly increased
